Experimental data: article PMC8508768, “Halting Tumor Progression via Novel Non-Hydroxamate Triazole-Based Mannich Bases MMP-2/9 Inhibitors; Design, Microwave-Assisted Synthesis, and Biological Evaluation” (International Journal of Molecular Sciences, 2021)

Each molecule was assayed on MDA-MB 231 (assay: MTT anticancer assay, breast cancer cells). Settings: selectivity index: ratio of IC50 against normal (Wi-38) and cancer cells.
Assay type: cell-based, human
Source text: [The source words this procedure for another cell line and reports this cell line under the same test.] All the newly synthesized derivatives were firstly screened for cytotoxic activities on normal lung fibroblasts (Wi-38) for evaluating their safety profiles.
For S=c1n(CN2CCCCC2)nc(Cn2cc(-c3ccccc3)nn2)n1-c1ccccc1 [Compound 9, 4-Phenyl-3-((4-phenyl-1H-1,2,3-triazol-1-yl)methyl)-1-(piperidin-1-ylmethyl)-1H-1,2,4-triazole-5(4H)-thione], the “MDA-MB 231 SI” value was 0.763.
With CCn1c(Cn2cc(-c3ccccc3)nn2)nn(CN2CCCCC2)c1=S [Compound 10, 4-Ethyl-3-((4-phenyl-1H-1,2,3-triazol-1-yl)methyl)-1-(piperidin-1-ylmethyl)-1H-1,2,4-triazole-5(4H)-thione] the “MDA-MB 231 SI” value was 1.621.
In the case of S=c1n(CN2CCOCC2)nc(Cn2cc(-c3ccccc3)nn2)n1-c1ccccc1 [Compound 11, 1-(Morpholinomethyl)-4-phenyl-3-((4-phenyl-1H-1,2,3-triazol-1-yl)methyl)-1H-1,2,4-triazole-5(4H)-thione], the “MDA-MB 231 SI” value is reported as 0.745.
CCn1c(Cn2cc(-c3ccccc3)nn2)nn(CN2CCOCC2)c1=S [Compound 12, 1-(Morpholinomethyl)-4-ethyl-3-((4-phenyl-1H-1,2,3-triazol-1-yl)methyl)-1H-1,2,4-triazole-5(4H)-thione] was tested, and the “MDA-MB 231 SI” value was 2.395.
In the case of CN1CCN(Cn2nc(Cn3cc(-c4ccccc4)nn3)n(-c3ccccc3)c2=S)CC1 [Compound 13, 1-((4-Methylpiperazin-1-yl)methyl)-4-phenyl-3-((4-phenyl-1H-1,2,3-triazol-1-yl)methyl)-1H-1,2,4-triazole-5(4H)-thione], the “MDA-MB 231 SI” value is reported as 1.562.
With CCn1c(Cn2cc(-c3ccccc3)nn2)nn(CN2CCN(C)CC2)c1=S [Compound 14, 1-((4-Methylpiperazin-1-yl)methyl)-4-ethyl-3-((4-phenyl-1H-1,2,3-triazol-1-yl)methyl)-1H-1,2,4-triazole-5(4H)-thione] the “MDA-MB 231 SI” value was 0.844.
